A short description of this data set: Cytotoxicity against human HepG2 cells measured after 72 hrs by hoechst 33342 staining based imaging assay. The class given is toxicity, cell-based.

On to `CN(C(=O)c1cc(-c2ccc(Cl)cc2)ccn1)c1ccc(Cl)cc1`, for which the CC50 at 72 h runs as follows: (read-out: CC50) greater than 10 µM; (read-out: pCC50 (converted)) greater than 10 µM.
As to `[2H]C([2H])([2H])N(C(=O)c1ncc(-c2ccc(Cl)cc2)o1)c1ccc(Cl)cc1`, the CC50 at 72 h (read-out: CC50) was greater than 10000 µM and the CC50 at 72 h (read-out: pCC50 (converted)) was greater than 10 µM.
As to `CN(C(=O)c1ncc(-c2ccc(Cl)cc2)o1)c1ccc(Cl)cc1`, the CC50 at 72 h (read-out: CC50) is greater than 10 µM and the CC50 at 72 h (read-out: pCC50 (converted)) is greater than 10 µM.
Consider `[2H]C([2H])([2H])N(C(=O)c1cc(-c2ccc(Cl)cc2)ccn1)c1ccc(Cl)cc1`, for which the CC50 at 72 h runs as follows: (read-out: CC50) greater than 10000 µM; (read-out: pCC50 (converted)) greater than 10 µM.

These data come from ChEMBL document CHEMBL6134860, “Discovery and optimization of a novel carboxamide scaffold with selective antimalarial activity” (Eur J Med Chem, 2025).
